# Assay results from PubChem BioAssay AID1347131 (National Center for Advancing Translational Sciences (NCATS), 2019).
# The whole screen tested about 410,000 compounds, of which about 2,000 (0.49%) were called active. Inconclusive results, whose numbers are uncertain, are shown with a selection of clear calls. Calls come from the whole dose curve; tested in HEK293 reporter line. A potency beside an inconclusive call is a rough fit, not a confirmed value.
# Test: qHTS Assay for Foot and Mouth Disease Virus Antivirals: Primary Screen against the MLPCN compound library; note: nearly all actives have a fitted effect of over 55% in size
# Details: FMDV antiviral cell-based qHTS; series mostly up to 57.9 µM
# Potency is the fitted concentration of half-maximal effect.
row,Structure (SMILES),Potency
1,O=C(Nc1ccc(N2CCOCC2)cc1)c1cnsn1,"inconclusive: 28.2 µM [inhibitor, partial curve, poor fit]"
2,C/C(N)=C(/C#N)C(=O)CSc1nc2ccc(C)cc2[nH]1,active: 22.4 µM
3,CCOC(=O)c1ccc[n+](C(C)C(=O)c2ccc(-c3ccccc3)cc2)c1 (stereo not drawn),inactive
4,CC(C)Cn1c(N)c(C(=O)CSc2nc3ncc(Cl)cc3[nH]2)c(=O)n(C)c1=O,"inconclusive: 15.8 µM [inhibitor, partial curve, poor fit]"
5,Cc1ccc(C(=O)NCCc2cccs2)cc1,"inconclusive: 14.1 µM [inhibitor, single point]"
6,CCN(c1ccccc1)S(=O)(=O)c1cc(C(=O)Nc2ccc(Br)cc2)ccc1F,"inconclusive: 17.8 µM [inhibitor, partial curve, poor fit]"
7,Cc1ccc(-c2csc(=Nc3ccccc3)n2CCCO)cc1,"inconclusive: 31.6 µM [inhibitor, partial curve, poor fit]"
8,O=C1CC(N2CCC(c3nc4ccccc4o3)CC2)C(=O)N1c1cc(Cl)cc(Cl)c1 (stereo not drawn),"inconclusive: 20 µM [inhibitor, partial curve]"
9,CNC(=O)c1ccc(NC(=O)c2nsc3ccccc23)cc1,"inconclusive: 39.8 µM [inhibitor, single point]"
10,COc1cc2c(cc1OC)CN(C(=O)c1cc(Cl)nc(Cl)c1)CC2,inactive
11,COC(=O)c1cccc(S(=O)(=O)N2CCC(NC(=O)Nc3cccc(F)c3)CC2)c1,"inconclusive: 2.82 µM [inhibitor, partial curve, poor fit]"
12,CCS(=O)(=O)c1ncc(Cl)c(C(=O)N(Cc2ccccc2)Cc2ccco2)n1,"inconclusive: 14.1 µM [inhibitor, partial curve, poor fit]"
13,COc1cccc(S(=O)(=O)NCc2ccc(C(=O)Nc3cccc(Cl)c3)cc2)c1,"inconclusive: 25.1 µM [inhibitor, partial curve, poor fit]"
14,CCCCn1c(N)c(N(CCC(C)C)C(=O)C2=NN(c3ccccc3)C(=O)CC2)c(=O)[nH]c1=O,"inconclusive: 17.8 µM [inhibitor, single point]"
15,COCCn1c(C)cc(C(=O)CSc2nc3ccccc3s2)c1C,"inconclusive: 15.8 µM [inhibitor, partial curve, poor fit]"
16,O=C(COC(=O)c1ccccc1NCCO)Nc1cccc(S(=O)(=O)NC2=NCCCCC2)c1,"inconclusive: 8.91 µM [inhibitor, partial curve, poor fit]"
17,CC1(Cc2cc(Cl)ccc2C(F)(F)F)C(=O)Nc2c(Cl)cccc21 (stereo not drawn),inactive
18,Cc1cccc(C)c1NC(=O)c1nc(S(=O)(=O)Cc2ccccc2)ncc1Cl,"inconclusive: 28.2 µM [inhibitor, partial curve, poor fit]"
19,COc1ccccc1CCn1cnc(Cc2cccc(F)c2)c1C(C)C,"inconclusive: 22.4 µM [inhibitor, partial curve, poor fit]"

# Structures shown so far containing a carbonyl joined to an NH by a bond outside any ring (8):
row,Structure (SMILES),Potency
1,O=C(Nc1ccc(N2CCOCC2)cc1)c1cnsn1,"inconclusive: 28.2 µM [inhibitor, partial curve, poor fit]"
5,Cc1ccc(C(=O)NCCc2cccs2)cc1,"inconclusive: 14.1 µM [inhibitor, single point]"
6,CCN(c1ccccc1)S(=O)(=O)c1cc(C(=O)Nc2ccc(Br)cc2)ccc1F,"inconclusive: 17.8 µM [inhibitor, partial curve, poor fit]"
9,CNC(=O)c1ccc(NC(=O)c2nsc3ccccc23)cc1,"inconclusive: 39.8 µM [inhibitor, single point]"
11,COC(=O)c1cccc(S(=O)(=O)N2CCC(NC(=O)Nc3cccc(F)c3)CC2)c1,"inconclusive: 2.82 µM [inhibitor, partial curve, poor fit]"
13,COc1cccc(S(=O)(=O)NCc2ccc(C(=O)Nc3cccc(Cl)c3)cc2)c1,"inconclusive: 25.1 µM [inhibitor, partial curve, poor fit]"
16,O=C(COC(=O)c1ccccc1NCCO)Nc1cccc(S(=O)(=O)NC2=NCCCCC2)c1,"inconclusive: 8.91 µM [inhibitor, partial curve, poor fit]"
18,Cc1cccc(C)c1NC(=O)c1nc(S(=O)(=O)Cc2ccccc2)ncc1Cl,"inconclusive: 28.2 µM [inhibitor, partial curve, poor fit]"

# Further entries follow:

row,Structure (SMILES),Potency
1,O=C(NCCS(=O)(=O)N1CCN(c2ccccc2)CC1)c1ccc(Br)o1,"inconclusive: 12.6 µM [inhibitor, partial curve, poor fit]"
2,Cc1ccc(OC(=O)Cn2c(C(F)(F)F)nc3ccccc32)cc1,inactive
3,COc1ccc(-c2n[nH]c(=S)n2N)c(OC)c1,"inconclusive: 2.24 µM [inhibitor, full curve]"
4,O=c1[nH]c2ccccc2n1C1CCN(C(CCc2ccccc2)c2nnnn2C2CCCC2)CC1 (stereo not drawn),"inconclusive: 35.5 µM [inhibitor, partial curve, poor fit]"
5,CCOC(=O)N1CCN(c2ncnc3c2[nH]c2ccc(F)cc23)CC1,"inconclusive: 14.1 µM [inhibitor, partial curve, poor fit]"
6,Cc1oc(-c2ccccc2F)nc1CS(=O)(=O)CC(=O)N1CCN(c2cccc(C(F)(F)F)c2)CC1,"inconclusive: 35.5 µM [inhibitor, partial curve, poor fit]"
7,Cc1cc(C)c(S(=O)(=O)NCCc2cc3c(C)ccc(C)c3[nH]c2=O)c(C)c1,"inconclusive: 11.2 µM [inhibitor, partial curve]"
8,NC(=O)CC(NC(=O)c1ccc(Br)cc1)c1ccc(N2CCN(c3ccccc3)CC2)c([N+](=O)[O-])c1 (stereo not drawn),"inconclusive: 10 µM [inhibitor, partial curve]"
9,Oc1ccccc1C=Nc1ccccc1-c1nc2ccccc2[nH]1,"inconclusive: 39.8 µM [inhibitor, single point]"
10,Cc1ccc(-n2[nH]c(C)c(C=Nc3ccc4[nH]c(=O)[nH]c4c3)c2=O)cc1,"inconclusive: 31.6 µM [inhibitor, single point]"
11,CCC(=O)Nc1cc(-c2nn(C)c(=O)c3ccccc23)ccc1N1CCCCC1,"inconclusive: 39.8 µM [inhibitor, partial curve, poor fit]"
12,O=C(Nc1cccc(-c2nc3ncccc3o2)c1)c1ccc(-c2cccc(Cl)c2Cl)o1,"inconclusive: 11.2 µM [inhibitor, partial curve, poor fit]"
13,COC(=O)CCn1c(C)cc(C(=O)COc2ccccc2C(N)=O)c1C,"inconclusive: 15.8 µM [inhibitor, partial curve, poor fit]"
14,COc1ccccc1C(=O)Nc1ccc(C(=O)c2ccccc2)cc1,inactive
15,O=S1(=O)[C@H]2CC3O[C@]2(C[C@@H]3c2ccc(F)cc2)CN1Cc1ccc(Cl)cc1,"inconclusive: 12.6 µM [inhibitor, partial curve, poor fit]"
16,Cc1ccc(/C=C2\C(=O)NC(=O)N(Cc3ccccc3Cl)C2=O)o1,"inconclusive: 31.6 µM [inhibitor, partial curve, poor fit]"
17,COc1ccc(C(=O)CSc2nn3c(=O)c(C(C)(C)C)nnc3s2)cc1,"inconclusive: 14.1 µM [inhibitor, partial curve, poor fit]"
18,Cc1cccc(-n2nnnc2SCC(=O)NCC2CCCO2)c1 (stereo not drawn),inactive
19,CCOc1cc2c(cc1OCC)C(c1c(F)cccc1Cl)CC(=O)N2 (stereo not drawn),"inconclusive: 14.1 µM [inhibitor, partial curve]"
